Assay results taken from patent US20230192860A1.
Results are given in words; binding and its absence hold for the method and conditions named. Some binding calls cover weakened binding; strength is not graded here. Tags and fused reporters may be left off the sequences shown.

Target: T1, full length human PSGL-1 (SEQ ID NO: 3) expressed on heparan sulfate-deficient CHO cells (human) (UniProt Q14242)
T1 sequence: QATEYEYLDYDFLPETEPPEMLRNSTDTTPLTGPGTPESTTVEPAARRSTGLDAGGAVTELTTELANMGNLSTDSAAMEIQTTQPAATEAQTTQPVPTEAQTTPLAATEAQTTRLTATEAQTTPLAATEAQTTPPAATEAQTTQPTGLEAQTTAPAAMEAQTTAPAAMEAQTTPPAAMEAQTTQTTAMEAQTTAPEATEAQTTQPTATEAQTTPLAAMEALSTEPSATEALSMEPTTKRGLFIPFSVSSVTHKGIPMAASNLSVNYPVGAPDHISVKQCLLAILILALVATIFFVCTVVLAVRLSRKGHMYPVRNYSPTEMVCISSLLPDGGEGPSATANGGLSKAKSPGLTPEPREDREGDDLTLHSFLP
Test: VISTA-Fc on CHO-PSGL-1 cells, pH 6.0

binding: binds
B1: human VISTA-Fc H2R mutant (histidines 153-155 replaced by arginine) (Fc fusion, not shown: a dimerising Fc or GST)
chain: FKVATPYSLYVCPEGQNVTLTCRLLGPVDKGHDVTFYKTWYRSSRGEVQTCSERRPIRNLTFQDLHLHHGGHQAANTSHDLAQRHGLESASDHHGNFSITMRNLTLLDSGLYCCLVVEIRRRRSEHRVHGAMELQVQTGKDAPSNCVVYPSSSQDSENITAA
